{
  "source": "PubChem BioAssay AID602313",
  "about": "(National Center for Advancing Translational Sciences (NCATS), 2012)",
  "note": "The whole screen tested about 390,000 compounds, of which about 760 (0.19%) were called active. The inconclusive results got no clear call from the source; some entries with a clear call stand among them for comparison. Calls come from the whole dose curve; as a rule, active = well fitted inhibition curve with a large enough effect; inconclusive = small, poorly fitted or top-dose-only effect; inactive = flat fitted curve, though single readings scatter. Where the call is inconclusive, the potency comes from a doubtful curve fit. Potency is the fitted concentration of half-maximal effect.",
  "data": [
    {"assay": "qHTS for Inhibitors of Vif-A3F Interactions: qHTS; note: nearly all actives have a fitted effect of over 65% in size; for activity, negative = active: % of control where 0% means no effect", "details": "HeLa A3F-eYFP + Vif (tagged APOBEC3F with the HIV-1 protein that degrades it), YFP fluorescence increase; series mostly up to 46.1 µM; activity, negative = active: at the top concentration", "procedure,_shortened": "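HeLa cells stably expressing A3F-eYFP plus Vif, plated and incubated overnight at 37 deg C, then exposed to compounds overnight at 37 deg C. Blocked degradation read as raised yellow fluorescence (Ex 488/Em 500-530).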", "values": [
      {"smiles": "CCCCN(C)c1nc(-c2ccco2)c2c(c1C#N)CC(C)(C)OC2", "activity, negative = active": "inactive: -16.4%"},
      {"smiles": "COC(=O)C1=C(C)NC(=O)/C1=C\\c1cc(C)n(-c2ccccc2)c1C", "Potency": "inconclusive: 35.5 µM [inhibitor, single point]"},
      {"smiles": "CCCCOc1ccc(C(=O)N/N=C/c2ccc(OCCN3CCCCC3)c(OC)c2)cc1", "Potency": "inconclusive: 8.91 µM [inhibitor, partial curve, poor fit]"},
      {"smiles": "COc1ccc(C(NC(C)=O)c2cc(Cl)c3cccnc3c2O)cc1", "note": "(stereo not given)", "Potency": "inconclusive: 35.5 µM [inhibitor, single point]"},
      {"smiles": "COc1cc(/C=C2\\SC(=Nc3ccccc3OC)NC2=O)ccc1O", "Potency": "inconclusive: 35.5 µM [inhibitor, single point]"},
      {"smiles": "Cc1cc(NC(=O)c2ccccc2F)nc2c1c(=O)oc1ccccc12", "Potency": "inconclusive: 35.5 µM [inhibitor, single point]"},
      {"smiles": "CCCn1c(NC(=O)c2ccc([N+](=O)[O-])o2)nc2ccccc21", "Potency": "inconclusive: 35.5 µM [inhibitor, single point]"},
      {"smiles": "COc1ccc(-c2c(C#N)c(N)nc3sc(C(=O)c4ccc(C)cc4)c(N)c23)cc1", "Potency": "inconclusive: 3.16 µM [inhibitor, full curve, poor fit]"},
      {"smiles": "O=C1NN(c2ccccc2)C(=O)/C1=C\\c1ccccc1", "Potency": "inconclusive: 7.94 µM [inhibitor, partial curve, poor fit]"},
      {"smiles": "CSCc1ccc(C(=O)NCc2ccccc2)cc1", "Potency": "inconclusive: 35.5 µM [inhibitor, single point]"},
      {"smiles": "N#CC(C#N)=C1C=CC=CN1/C(=C\\c1ccco1)C(=O)c1ccc(Cl)cc1", "Potency": "inconclusive: 10 µM [inhibitor, partial curve, poor fit]"},
      {"smiles": "Oc1ccccc1-c1nc(NCc2ccco2)c2ccccc2n1", "Potency": "inconclusive: 35.5 µM [inhibitor, single point]"},
      {"smiles": "CCc1ccc(C2=CC(c3cccc(OC)c3OC)n3c(nc4ccccc43)N2)cc1", "note": "(stereo not given)", "Potency": "inconclusive: 20 µM [inhibitor, partial curve, poor fit]"},
      {"smiles": "Cc1ccc(N2CCN(S(=O)(=O)c3nnc(NC(=O)c4cccc(F)c4)s3)CC2)cc1", "activity, negative = active": "inactive: -5.79%"},
      {"smiles": "COc1ccc(/C=C/C(=O)c2ccccn2)cc1", "Potency": "inconclusive: 17.8 µM [inhibitor, partial curve, poor fit]"},
      {"smiles": "CCc1ccc[n+](-c2nc3ccccc3nc2C(=C=[N-])C#N)c1", "Potency": "inconclusive: 11.2 µM [inhibitor, partial curve, poor fit]"},
      {"smiles": "Cc1cc(NC(=O)Nc2ccc(C)c(C)c2)no1", "Potency": "inconclusive: 3.16 µM [inhibitor, full curve, poor fit]"},
      {"smiles": "Cc1cccc(CC2S/C(=N/N=C/c3ccco3)N(c3ccccc3)C2=O)c1", "note": "(stereo not given)", "Potency": "inconclusive: 6.31 µM [inhibitor, single point]"},
      {"smiles": "O=C(c1cc(-c2ccc(Cl)c(Cl)c2)on1)N1CCCCCC1", "activity, negative = active": "inactive: -4.13%"},
      {"smiles": "N#C/C(=C\\C=C\\c1ccccc1)c1nc(-c2ccc3c(c2)OCO3)cs1", "Potency": "inconclusive: 3.16 µM [inhibitor, single point]"},
      {"smiles": "CCC1=Nc2cc(C(=O)NC3CCCC3)ccc2Sc2ccc(Cl)cc21", "activity, negative = active": "inactive: -4.97%"},
      {"smiles": "Cc1cc(C)c2nc(SCC(=O)NCCC3=CCCCC3)cc(C)c2c1", "activity, negative = active": "inactive: -10.9%"},
      {"smiles": "Cc1cc2nc3c(=O)n(Cc4ccccc4)c(=O)[nH]c3nc2cc1N", "Potency": "inconclusive: 7.08 µM [inhibitor, partial curve, poor fit]"},
      {"smiles": "CCCC(=O)N1c2ccccc2C(=C2SC(C(=O)OC)=C(C(=O)OC)S2)C(=S)C1(C)C", "activity, negative = active": "inactive: 7.8%"},
      {"smiles": "Cc1cccc2c1-c1sc(C(=O)NCCCN3CCC(C)CC3)cc1CO2", "activity, negative = active": "inactive: 4.2%"},
      {"smiles": "O=C(O)c1cc(Cl)ccc1-c1ccc(/C=C/c2cc(C(F)(F)F)[nH]c(=O)n2)o1", "Potency": "inconclusive: 22.4 µM [inhibitor, single point]"},
      {"smiles": "CC1CCN(C(=O)CSc2nc3ccccc3c(=O)[nH]2)CC1", "Potency": "inconclusive: 6.31 µM [inhibitor, single point]"},
      {"smiles": "Cc1cc(-c2ccccc2)nc2cc(C(=O)Nc3ccc(Cl)c(Cl)c3)nn12", "Potency": "inconclusive: 22.4 µM [inhibitor, single point]"},
      {"smiles": "CCOc1ccc2c(c1)c(N=NC(N)=S)c(O)n2C", "Potency": "inconclusive: 3.16 µM [inhibitor, partial curve, poor fit]"},
      {"smiles": "O=C1CCC2S/C(=C/Nc3ccc(C(F)(F)F)cc3)C(=O)N12", "note": "(stereo not given)", "Potency": "inconclusive: 14.1 µM [inhibitor, partial curve]"},
      {"smiles": "CCOC(=O)N/N=C/c1c(C)c(C(=O)c2ccc(F)cc2)n2ccccc12", "Potency": "inconclusive: 5.62 µM [inhibitor, single point]"},
      {"smiles": "Cc1ccccc1NC(=O)Cn1nnc(C(=O)NCc2ccco2)c1N", "Potency": "inconclusive: 3.16 µM [inhibitor, single point]"},
      {"smiles": "NS(=O)(=O)c1ccc(CNC(=O)c2cc(-c3cccnc3)nc3ccc(Br)cc23)cc1", "Potency": "inconclusive: 15.8 µM [inhibitor, single point]"},
      {"smiles": "Nc1nc(-c2ccc3c(c2)CCCC3)c(CC(=O)O)s1", "Potency": "inconclusive: 20 µM [inhibitor, partial curve, poor fit]"},
      {"smiles": "COc1ccc(C(=O)NC(=S)NCCc2ccccc2)cc1", "Potency": "inconclusive: 35.5 µM [inhibitor, single point]"},
      {"smiles": "c1cncc(Nc2c3ccccc3nc3ccccc23)c1", "Potency": "inconclusive: 35.5 µM [inhibitor, single point]"},
      {"smiles": "CCOc1cc(N2CCOCC2)c(OCC)cc1NC(=O)CSc1ncn[nH]1", "Potency": "inconclusive: 3.16 µM [inhibitor, single point]"},
      {"smiles": "O=[N+]([O-])c1ccc(NN=Cc2ccccc2O)nc1", "Potency": "inconclusive: 7.94 µM [inhibitor, partial curve, poor fit]"},
      {"smiles": "O=c1[nH]c(SCc2nc3c(cnn3-c3ccccc3)c(=O)[nH]2)nc2ccccc12", "Potency": "inconclusive: 28.2 µM [inhibitor, single point]"},
      {"smiles": "COc1ccc2cc(C(=O)C3CCCN(C(=O)c4cc5nc(C)cc(C)n5n4)C3)ccc2c1", "note": "(stereo not given)", "Potency": "inconclusive: 17.8 µM [inhibitor, single point]"}
    ]}
  ]
}
